Data as given in PubChem BioAssay AID1224826 (NIAID, 2016).

Aim: 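Genes that change LPS-induced Tnf promoter activity in mouse macrophages when knocked down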 (primary screen)
Cells: RAW264.7 G9 macrophages from mouse bearing reporters for p65 (GFP) and the Tnf promoter (mCherry)
Reagents: siRNA pool against mouse genes, 100 nM
Duration: 16 h of LPS stimulation, after 2 days of siRNA transfection
Conditions: bacterial lipopolysaccharide (Salmonella minnesota R595), 10 ng/ml
Read-out: 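Imaged Tnf reporter mCherry in nuclei, minus background, normalised per plate to the median and expressed as robust z-scores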
Scale: Tnf reporter robust z-score: higher = stronger Tnf promoter reporter signal after LPS; Tnf reporter intensity: higher = stronger Tnf promoter reporter signal
Hit rule: 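Called active when robust z-score is at most -1.3, matching the median of the Tlr4 knock-down control, or over 3; control wells and wells with under 50 cells never active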
Meaning of the calls: active = Tnf reporter clearly lowered or raised; inactive = no clear change in Tnf reporter
The whole screen tested about 17,000 reagents; this is a random part of them. In the full data, about 1,110 (6.6%) are marked active. 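Active means lowered or raised reporter signal; replicate intensities are raw and not normalised per plate.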 Entries without a mark were called inactive. The numbers tell different reagents against one gene apart.

no.	gene knocked down	pool no.	Tnf reporter robust z-score	fewer than 50 cells in well	Tnf reporter intensity, replicate 1	Tnf reporter intensity, replicate 2
1	Cntd1 (cyclin N-terminal domain containing 1)	1	1.74	enough cells in well	299	150
2	Taf13 (TATA-box binding protein associated factor 13)	1	0.63	enough cells in well	274	168
3	Abcd4 (ATP-binding cassette, sub-family D member 4)	1	-1.05	enough cells in well	129	124
4	Vta1 (vesicle (multivesicular body) trafficking 1)	1	-0.95	enough cells in well	195	27.1
5	Ccer1 (coiled-coil glutamate-rich protein 1)	1		fewer than 50 cells per well; well left out of calls	128	0
6	Ywhaq	1	-0.33	enough cells in well	186	226
7	Dpp6 (dipeptidylpeptidase 6)	1	0.41	enough cells in well	224	123
8	Dpp6 (dipeptidylpeptidase 6)	2	-0.34	enough cells in well	170	198
9	Bfar (bifunctional apoptosis regulator)	1	-0.45	enough cells in well	130	128
10	Mrps2 (mitochondrial ribosomal protein S2)	1	0.4	enough cells in well	342	73.3
11	Sox8 (SRY (sex determining region Y)-box 8)	1	0.98	enough cells in well	360	295
12	Rprm (reprimo, TP53 dependent G2 arrest mediator candidate)	1	-0.46	enough cells in well	151	114
13	Dennd2b (DENN domain containing 2B)	1	0.06	enough cells in well	251	248

A portion from the list above, for reference:
no.	gene knocked down	pool no.	Tnf reporter robust z-score	fewer than 50 cells in well	Tnf reporter intensity, replicate 1	Tnf reporter intensity, replicate 2
6	Ywhaq	1	-0.33	enough cells in well	186	226
7	Dpp6 (dipeptidylpeptidase 6)	1	0.41	enough cells in well	224	123
8	Dpp6 (dipeptidylpeptidase 6)	2	-0.34	enough cells in well	170	198
9	Bfar (bifunctional apoptosis regulator)	1	-0.45	enough cells in well	130	128
10	Mrps2 (mitochondrial ribosomal protein S2)	1	0.4	enough cells in well	342	73.3

The listing continues:
no.	gene knocked down	pool no.	Tnf reporter robust z-score	fewer than 50 cells in well	Tnf reporter intensity, replicate 1	Tnf reporter intensity, replicate 2
14	2810428J06Rik (RIKEN cDNA 2810428J06 gene)	1	1.47	enough cells in well	236	111
15	Sgip1 (SH3-domain GRB2-like (endophilin) interacting protein 1)	1		fewer than 50 cells per well; well left out of calls	194	69.5
16	Slc25a16	1	0.58	enough cells in well	105	138
17	Fndc9 (fibronectin type III domain containing 9)	1	-0.91	enough cells in well	96	83.6
18	Stmn3 (stathmin-like 3)	1	-0.71	enough cells in well	205	170
19	Hmcn2 (hemicentin 2)	1	0.3	enough cells in well	213	244
20	Ache (acetylcholinesterase)	1	-0.91	enough cells in well	133	98.3
21	Sirpb1a (signal-regulatory protein beta 1A)	1	-0.16	enough cells in well	149	150
22	Nobox (NOBOX oogenesis homeobox)	1	1.23	enough cells in well	295	188
23	Parp14 (poly (ADP-ribose) polymerase family, member 14)	1	0.52	enough cells in well	227	262
24	Fbxo44 (F-box protein 44)	1	2.26	enough cells in well	289	339
25	Rgs9 (regulator of G-protein signaling 9)	1	-0.6	enough cells in well	245	53.5
26	Usp24 (ubiquitin specific peptidase 24)	1	1.75	enough cells in well	303	192
27	Or2w4 (olfactory receptor family 2 subfamily W member 4)	1	1.08	enough cells in well	243	167
28	Grin2b (glutamate receptor, ionotropic, NMDA2B (epsilon 2))	1	-0.25	enough cells in well	247	204
29	Gatb (glutamyl-tRNA amidotransferase subunit B)	1	-1.01	enough cells in well	178	105
30	Jak1 (Janus kinase 1)	1	0.57	enough cells in well	249	178
31	Cfd (complement factor D)	1	-0.78	enough cells in well	157	130
32	Rnf5 (ring finger protein 5)	1	-0.28	enough cells in well	117	114
33	Scgb2b2 (secretoglobin, family 2B, member 2)	1	2.37	enough cells in well	398	311
34	Fermt3 (fermitin family member 3)	1	-1.3 (active)	enough cells in well	137	92.1
35	Ctnnd1 (catenin delta 1)	1	0.75	enough cells in well	331	238
36	H1f10 (H1.10 linker histone)	1	-0.57	enough cells in well	186	141
37	Ankrd13b (ankyrin repeat domain 13b)	1	-0.23	enough cells in well	196	184
38	Slc35g1	1	1.02	enough cells in well	156	88.4
39	Tmod1 (tropomodulin 1)	1	-0.56	enough cells in well	96.4	65.7
40	Zfp629 (zinc finger protein 629)	1	-0.22	enough cells in well	144	198
